Results deposited as PubChem BioAssay AID504791 (Drosophila RNAi Screening Center, 2011)

Assay: 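Genes whose knock-down strengthens or weakens small-RNA reporter silencing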 (primary screen)
Cells: Drosophila S2-derived reporter cells
Knock-down reagent: long dsRNA against Drosophila genes, about 150-250 ng dsRNA per well (siRNA assay); about 80-120 ng (miRNA assay)
Duration: about 5 days (siRNA assay); about 4 days (miRNA assay)
Challenge: copper sulfate induction of reporters: 25 µM (siRNA assay); 200 mM stated (miRNA assay), 1-2 days before reading
Measured: 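Per-well ratio of Renilla over firefly light, expressed relative to that plate's average ratio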
Units: stable assay Renilla, run 1 in luminescence; stable assay firefly, run 1 in luminescence
Call rule: 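a well was a first-pass pick when its plate-scaled ratio rose above 1.5 (siRNA assay) or 1.6 (miRNA assay), or dropped below 0.6; a gene counted only if two separate dsRNAs agreed on retest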
In all, the deposit lists about 23,000 reagents; below is an unselected part of those that have a named target and a result. Of all reagents, 199 (0.86%) got an active call. 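Plate-scaled ratios behind the calls are not deposited; printed light signals are raw; many rows marked increased or decreased are still called inactive.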 No sequences are given here. Not given: the direction of the score.

Which result is listed for CG7768 [DRSC10914]?
stable assay Renilla, run 1: 8374; stable assay firefly, run 1: 2.48e5; Call: inactive

For CG42565 [DRSC04154], what was measured?
stable assay Renilla, run 1: 6523; stable assay firefly, run 1: 4.21e5; Call: inactive

For CG1894 [DRSC15396], how do the results read?
stable assay Renilla, run 1: 6958; stable assay firefly, run 1: 3.88e5; Call: inactive

What is on record for RpS6 [DRSC18712]?
miRNA reporter change: reporter ratio lowered past the hit cutoff; stable assay Renilla, run 1: 6363; stable assay firefly, run 1: 3.34e5; Call: active

How did the screen score Wnt6 [DRSC02795]?
stable assay Renilla, run 1: 9917; stable assay firefly, run 1: 5.97e5; Call: inactive

With CG32189 [DRSC09511], what does the deposit list?
stable assay Renilla, run 1: 6832; stable assay firefly, run 1: 4.23e5; Call: inactive

Which result is listed for CG31099 [DRSC14252]?
stable assay Renilla, run 1: 6826; stable assay firefly, run 1: 3.76e5; Call: inactive

With CG2182 [DRSC12308], what does the deposit list?
stable assay Renilla, run 1: 7638; stable assay firefly, run 1: 3.94e5; Call: inactive

For CG6443 [DRSC02958], what was measured?
stable assay Renilla, run 1: 7971; stable assay firefly, run 1: 1.16e6; Call: inactive

Hits (from the list above):
RpS6 [DRSC18712] — miRNA reporter change: reporter ratio lowered past the hit cutoff; stable assay Renilla, run 1: 6363; stable assay firefly, run 1: 3.34e5; Call: active

The list goes on:
With Hsdl2 [DRSC15839], how do the results read?
stable assay Renilla, run 1: 7610; stable assay firefly, run 1: 3.60e5; Call: inactive

What did the screen give for Mitofilin [DRSC16742]?
stable assay Renilla, run 1: 9226; stable assay firefly, run 1: 3.58e5; Call: inactive

Which result is listed for Cyp4e3 [DRSC03306]?
stable assay Renilla, run 1: 7423; stable assay firefly, run 1: 3.53e5; Call: inactive

How did the screen score CG4496 [DRSC02753]?
stable assay Renilla, run 1: 7447; stable assay firefly, run 1: 3.58e5; Call: inactive

For SmD1 [DRSC09800], what does the deposit list?
stable siRNA reporter change: reporter ratio raised past the hit cutoff; stable assay Renilla, run 1: 19794; stable assay firefly, run 1: 7.72e5; Call: active

What is on record for phu [DRSC16390]?
stable assay Renilla, run 1: 5907; stable assay firefly, run 1: 3.71e5; Call: inactive

What did the screen give for Gr59f [DRSC04499]?
stable assay Renilla, run 1: 6619; stable assay firefly, run 1: 3.77e5; Call: inactive

With Sirt6 [DRSC16010], what does the deposit list?
stable assay Renilla, run 1: 7375; stable assay firefly, run 1: 3.15e5; Call: inactive

For upd3 [DRSC19636], what does the deposit list?
stable assay Renilla, run 1: 4023; stable assay firefly, run 1: 2.65e5; Call: inactive

What did the screen give for upd3 [DRSC19968]?
stable assay Renilla, run 1: 3716; stable assay firefly, run 1: 2.55e5; Call: inactive

How did the screen score upd3 [DRSC22169]?
stable assay Renilla, run 1: 8392; stable assay firefly, run 1: 4.12e5; Call: inactive

Which result is listed for Nacalpha [DRSC07477]?
stable assay Renilla, run 1: 5762; stable assay firefly, run 1: 2.53e5; Call: inactive

For CG32192 [DRSC21760], how do the results read?
stable assay Renilla, run 1: 8570; stable assay firefly, run 1: 4.03e5; Call: inactive

With dmrt11E [DRSC19715], what does the deposit list?
stable assay Renilla, run 1: 4487; stable assay firefly, run 1: 3.59e5; Call: inactive

Which result is listed for CG15446 [DRSC20518]?
stable assay Renilla, run 1: 6171; stable assay firefly, run 1: 3.70e5; Call: inactive

What did the screen give for Usp39 [DRSC20032]?
stable assay Renilla, run 1: 9267; stable assay firefly, run 1: 3.83e5; Call: inactive

For CG31058 (retired record) [DRSC15840], what does the deposit list?
stable assay Renilla, run 1: 4679; stable assay firefly, run 1: 2.31e5; Call: inactive

Which result is listed for CG31058 (retired record) [DRSC22987]?
stable assay Renilla, run 1: 4015; stable assay firefly, run 1: 3.20e5; Call: inactive

For CG31365 [DRSC15610], what was measured?
stable assay Renilla, run 1: 7444; stable assay firefly, run 1: 2.91e5; Call: inactive
